PubChem BioAssay AID1259254 | NCATS – 2017
Shown is one part, drawn at random, of about 59,000 deposited reagents. About 1,550 of all reagents (2.6%) count as active. 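G2 share is only a proxy for re-replication; each gene was hit by three separate siRNAs, and active genes were retested.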 Reagents against one gene are numbered here. Further read-outs or replicates are left out here. No sequences are given here. Not given: the amount of reagent.

Test: 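Genome-wide screen for genes that prevent DNA re-replication in cancer cells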 (primary screen)
System: human HCT116 colorectal cancer cells
Reagents: single siRNA against human genes
Timing: 3 days
Detection: 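Nuclei stained with Hoechst and imaged; cell-cycle phase assigned by DNA content; G2 share scaled per plate, non-targeting siRNA 0%, GMNN siRNA 100%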
Scale: G2 robust z-score: higher = more G2 cells, more excess DNA replication
Rule for the call: 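Active siRNAs have a G2 robust z of 5 or more median absolute deviations over the median, which in these data means about 38% or higher of GMNN control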

G2 robust z-score, by gene symbol and reagent
RICTOR: #1 -0.415 inactive; #2 -0.739 inactive; #3 -0.22 inactive
PAQR8: #1 1.27 inactive; #2 4.36 inactive; #3 0.854 inactive
STAC: #1 1.67 inactive; #2 0.202 inactive; #3 -0.1 inactive
MON1B: #1 -1.1 inactive; #2 -0.749 inactive; #3 -0.927 inactive
NRK: #1 -0.101 inactive; #2 -0.72 inactive; #3 -0.358 inactive

Individual results from the entries so far.
Value of RICTOR #3 in “G2 robust z-score”: -0.22
Value for STAC #1 in “G2 robust z-score”: 1.67

Further results:
G2 robust z-score, by gene symbol and reagent
SYT10: #1 3.82 inactive; #2 0.0616 inactive; #3 -0.454 inactive
TM4SF20: #1 0.952 inactive; #2 -0.679 inactive; #3 1.63 inactive
RASGEF1B: #1 -0.0831 inactive; #2 0.0544 inactive; #3 -0.119 inactive
PITPNM1: #1 -0.826 inactive; #2 -0.633 inactive; #3 -0.721 inactive
PCDHA8: #1 -0.79 inactive; #2 -0.621 inactive; #3 2.9 inactive
